Values joined by “and” are separate entries in the source; they are usually repeats but may differ in a detail not shown here. Equal entries are not always repeated. Structures can show the parent of a compound that is named as a salt. ± gives the standard deviation of the averaged measurements. This is one part of the list. Single values are uncertain here, since repeats match poorly.

For this assay, the system named is A549. Briefly: surface PD-L1 immunofluorescence intensity relative to IFN-gamma-only control (ratio); higher = more PD-L1 expression. The conditions noted are these: 10 µM; exposure time 24 h; IFN-gamma 100 ng/mL.
For the compound `O=c1[nH]c2cc(Cl)ccc2c(O)c1-c1cccc(Oc2ccccc2)c1`, the “surface PD-L1 immunofluorescence intensity” value is 0.97.
In the case of `Cc1ccc(C)c(OCCCC(C)(C)C(=O)O)c1` [Gemfibrozil], the “surface PD-L1 immunofluorescence intensity” value came to 1.03 ± 0.014.
The value for `COc1cc2c(cc1OC)[C@@H]1Cc3ccc(OC)c(OC)c3CN1CC2` [Rotundine] was 0.797.
Under `O=C(CCCN1CCC(O)(c2ccc(Cl)cc2)CC1)c1ccc(F)cc1` [Haloperidol hydrochloride] stands 1.07.
Under `O=C(CCCN1CCC(O)(c2ccc(Cl)cc2)CC1)c1ccc(F)cc1` [Haloperidol] stands 0.971; under `C[C@]12CCC(=O)C=C1C=C[C@@H]1[C@@H]2CC[C@@]2(C)[C@H]1CC[C@@]21CCC(=O)O1` [Canrenone], 0.917.
As for `CC1(C)[C@@H](O)CC[C@]2(C)[C@H]3C(=O)C=C4[C@@H]5C[C@@](C)(C(=O)O)CC[C@]5(C)CC[C@@]4(C)[C@]3(C)CC[C@@H]12` [Enoxolone (Glycyrrhetin)], the “surface PD-L1 immunofluorescence intensity” value was determined as 1.04.
Turning to `C[C@H]1COC2(CCN(c3nc(=O)c4cc(C(F)(F)F)cc([N+](=O)[O-])c4s3)CC2)O1` (racemic) [BTZ043 racemate], the “surface PD-L1 immunofluorescence intensity” value is 1.03.
The value for `CC1(C)S[C@@H]2[C@H](NC(=O)[C@H](N)c3ccccc3)C(=O)N2[C@H]1C(=O)OC1OC(=O)c2ccccc21` (stereo not given in full) [Talampicillin hydrochloride] was 1.05.
The value for `O=C(O)c1ccc(-n2nc(-c3ccccc3O)nc2-c2ccccc2O)cc1` [Deferasirox (Exjade)] was 0.995; that for `COC(=O)CCc1ccc(OCC(O)CNC(C)C)cc1` (stereo not given) [Esmolol hydrochloride] was 1.04.
Under `COCCOC(=O)C1=C(C)NC(C)=C(C(=O)OC(C)C)C1c1cccc([N+](=O)[O-])c1` (stereo not given) [Nimodipine] stands 1.03 ± 0.1; under `CN1C(C(=O)Nc2ccccn2)=C(O)c2ccccc2S1(=O)=O` [Piroxicam], 0.96 ± 0.066.
In the case of `COc1ccc2c3c1O[C@H]1C[C@@H](O)C=C[C@@]31CCN(C)C2` [Galanthamine hydrobromide], the “surface PD-L1 immunofluorescence intensity” value turned out to be 1.05 ± 0.048.
Under `Cc1cc(F)c(Nc2ncnc3cc(OCc4ccccc4)ccc23)cc1O` stands 1.08 and 1.04; under `Cc1nnc(SCC2=C(C(=O)O)N3C(=O)[C@@H](NC(=O)Cn4cnnn4)[C@H]3SC2)s1` [Cefazolin sodium salt], 0.984.
The value for `CCCCc1nc2ccn(Cc3cccs3)c(=O)c2n1Cc1ccc(-c2ccccc2-c2nn[nH]n2)cc1` was 0.875.
For the compound `c1cc(CN2CCCNCCNCCCNCC2)ccc1CN1CCCNCCNCCCNCC1` [Plerixafor 8HCl (AMD3100 8HCl)], the “surface PD-L1 immunofluorescence intensity” value was 1.04.
Under `CC(C)NC(=N)NC(=N)Nc1ccc(Cl)cc1` [Proguanil hydrochloride] stands 0.991.
The value for `CC(C)n1cnc2c(NCCc3ccc(O)cc3)nc(-c3csc4ccccc34)nc21` [StemRegenin 1] was 1.01; that for `Cc1nc2c(O)cccc2c(=O)[nH]1` was 0.954.
Under `C=C[C@@](C)(/C=C/c1ccc(O)cc1)CCC=C(C)C` [Bakuchiol] stands 0.892; under `CCCOc1ccc(Br)cc1-c1cc(-c2ccc(Cl)cc2)[nH]c1-c1ccncc1`, 0.934; under `CN(Cc1ccc(C(C)(C)C)cc1)Cc1cccc2ccccc12` [Butenafine Hydrochloride], 1.15.
With `N=C(CC(O)COc1ccccc1-c1ccccc1)N1CCCCC1` (stereo not given), the “surface PD-L1 immunofluorescence intensity” value was determined as 1.1.
As for `CCCCCCCCNC(C)C(O)c1ccc(SC(C)C)cc1` (stereo not given) [Suloctidil], the “surface PD-L1 immunofluorescence intensity” value is 1.01.
Under `CC(=O)CC(c1ccc([N+](=O)[O-])cc1)c1c(O)c2ccccc2oc1=O` (stereo not given) [Acenocoumarol] stands 0.921.
Under `S=c1[nH]cnc2nc[nH]c12` [Mercaptopurine] stands 1.01 ± 0.065; under `NS(=O)(=O)c1ccc(NC(=O)Nc2ccc(F)cc2)cc1`, 0.936.
The value for `COc1cc2c(cc1OC)-c1c/c(=N\c3c(C)cc(C)cc3C)n(C)c(=O)n1CC2` [Trequinsin hydrochloride] was 0.884; that for `Cc1cccc(Nc2ccncc2S(=O)(=O)NC(=O)NC(C)C)c1` [Torsemide] was 1.02.
As for `O=C(c1ccc(F)cc1)N1CCC[C@H](c2nc(-c3ccc(F)cc3)no2)C1`, the “surface PD-L1 immunofluorescence intensity” value was 1.05.
The value for `O=C1Nc2ccc(I)cc2/C1=C/c1cc(Br)c(O)c(Br)c1` was 0.977 and 0.964.
`O=C1N=C(O)NC1(c1ccccc1)c1ccccc1` [Phenytoin sodium (Dilantin)]: the “surface PD-L1 immunofluorescence intensity” value worked out at 1.01.
The value for `CC[N+](CC)(CC(=O)Nc1c(C)cccc1C)Cc1ccccc1` [Denatonium benzoate] was 0.963; that for `COc1cc(NS(=O)(=O)c2ccc(N)cc2)nc(OC)n1` [Sulfadimethoxine] was 1.03.
As to `CC1(C)O[C@@H]2[C@@H](CO[C@@]3(COS(N)(=O)=O)OC(C)(C)O[C@@H]23)O1` [Topiramate], the “surface PD-L1 immunofluorescence intensity” value was found to be 1 ± 0.021.
On to `CN(C)c1cc(NC(=O)CNC(C)(C)C)c(O)c2c1C[C@H]1C[C@H]3[C@H](N(C)C)C(O)=C(C(N)=O)C(=O)[C@@]3(O)C(O)=C1C2=O` [Tigecycline], for which the “surface PD-L1 immunofluorescence intensity” value came out at 1.09.
Under `CCNc1nc(Nc2cc(F)c(C(=O)N3CCOCC3)cc2OC)ncc1C(F)(F)F` stands 0.974.
The value for `CC(C)Cn1cnc2c(N)nc3ccccc3c21` [Imiquimod] was 0.995 ± 0.039.

Values taken from the supplement of paper PMC8732350.
